Source: PubChem BioAssay AID504774 (Drosophila RNAi Screening Center, 2011)
Purpose: 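Knock-downs that shift viability of MMS-exposed cells relative to untreated ones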 (primary screen). Cells: Drosophila Kc167 cells. Reagent: long dsRNA against Drosophila genes, about 0.25 µg dsRNA per well. Duration: about 6 days: 3 days knock-down, then 3 days with or without MMS. Conditions: methyl methanesulphonate 0.004% (w/v) for 3 days after knock-down. Read-out: 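ATP-dependent luminescence as a measure of live cells in MMS-exposed wells, quantile normalised within each plate, with replicate values also given as a mean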. Direction: mean viability with MMS and viability with MMS: higher = more surviving cells after MMS.
The deposit covers about 23,000 reagents; this is a random part of those that have a named target and a result. 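Values are quantile-normalised luminescence on an arbitrary scale; higher means more cells surviving MMS.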 Reagents against one gene are numbered here. A plus sign joins genes that one reagent is predicted to hit. No sequences are given here.

no.	target gene	dsRNA no.	mean viability with MMS	viability with MMS, replicate 1	viability with MMS, replicate 2
1	CG11815	1	3.43e6	3.91e6	3.90e6
2	CG8117	1	3.57e6	4.10e6	4.00e6
3	RpLP2 (Ribosomal protein LP2)	1	3.11e6	3.65e6	3.57e6
4	Irp-1B (Iron regulatory protein 1B)	1	3.75e6	4.15e6	4.17e6
5	Obp58c (Odorant-binding protein 58c)	1	3.72e6	4.02e6	4.38e6
6	CG8159	1	3.51e6	4.01e6	3.98e6
7	CG15109	1	3.54e6	4.12e6	3.91e6
8	CG15879	1	3.53e6	4.01e6	3.99e6
9	Ipk1 (Inositol phosphate kinase 1)	1	3.54e6	3.87e6	4.20e6
10	Ipk1 (Inositol phosphate kinase 1)	2	3.49e6	3.98e6	3.94e6
11	Ipk1 (Inositol phosphate kinase 1)	3	3.73e6	4.26e6	4.13e6
12	ND-B17.2 (NADH dehydrogenase (ubiquinone) B17.2 subunit)	1	3.51e6	3.91e6	4.03e6
13	Klc (Kinesin light chain)	1	3.52e6	3.97e6	4.01e6
14	Tnpo-SR (Transportin-Serine/Arginine rich)	1	3.27e6	3.48e6	3.79e6
15	CG14324	1	3.26e6	3.77e6	3.61e6
16	CG10863	1	3.68e6	4.04e6	4.31e6
17	Ir94d (Ionotropic receptor 94d)	1	3.52e6	4.04e6	3.96e6
18	sl (small wing)	1	3.32e6	3.95e6	3.52e6
19	sl (small wing)	2	3.30e6	3.79e6	3.83e6
20	CG42541	1	3.54e6	4.01e6	4.03e6
21	CG42541	2	2.65e6	3.34e6	3.32e6
22	CG42541	3	3.65e6	4.10e6	4.17e6
23	CG7239	1	2.66e6	2.84e6	3.04e6
24	CG7239	2	3.69e6	4.20e6	4.18e6
25	CG17375	1	3.61e6	4.06e6	4.08e6
26	Or22c (Odorant receptor 22c)	1	3.43e6	3.87e6	3.87e6
27	Tmtc3 (Transmembrane O-mannosyltransferase targeting cadherins 3)	1	3.70e6	4.06e6	4.28e6
28	Rab4	1	3.70e6	4.18e6	4.19e6
29	CG15731	1	3.50e6	3.86e6	4.06e6
30	CG15731	2	3.46e6	3.94e6	3.94e6
31	Samtor (S-adenosylmethionine sensor upstream of TORC1)	1	3.75e6	4.43e6	4.04e6
32	Sgs3 (Salivary gland secretion 3)	1	3.54e6	4.02e6	4.02e6
33	regucalcin	1	3.71e6	4.23e6	4.09e6
34	regucalcin	2	3.62e6	4.20e6	3.99e6
35	Axud1 (AXIN1 up-regulated 1)	1	3.46e6	3.97e6	3.85e6
36	CG18467	1	3.38e6	3.80e6	3.82e6
37	CtBP (C-terminal Binding Protein)	1	3.38e6	3.72e6	3.93e6
38	CG34126	1	3.52e6	3.95e6	4.02e6
39	CG34126	2	3.77e6	4.25e6	4.19e6
40	CanB2 (Calcineurin B2)	1	2.02e6	4.16e6	
41	mRpS22 (mitochondrial ribosomal protein S22)	1	3.65e6	3.91e6	4.35e6
42	Mlp84B (Muscle LIM protein at 84B)	1	3.52e6	4.08e6	3.92e6
43	JhI-21 (Juvenile hormone Inducible-21)	1	3.42e6	3.88e6	3.82e6
44	beat-IIIb (beaten path IIIb)	1	3.60e6	4.06e6	4.10e6
45	RpL26 (Ribosomal protein L26)	1	2.83e6	3.53e6	3.53e6
46	lqf (liquid facets)	1	3.59e6	4.19e6	3.95e6
47	Ak2 (Adenylate kinase 2)	1	3.49e6	4.03e6	3.86e6
48	CG7083	1	3.64e6	4.09e6	4.17e6
49	CG42808 + CG42807	1	3.61e6	4.12e6	4.08e6
50	CG42808 + CG42807	2	3.58e6	4.17e6	4.03e6
51	CCT1 (Chaperonin containing TCP1 subunit 1)	1	3.19e6	3.70e6	3.66e6
52	trp (transient receptor potential)	1	3.56e6	4.03e6	4.03e6
53	CG17580	1	3.61e6	3.73e6	4.25e6
54	CG6508	1	3.52e6	3.97e6	4.04e6
55	GluRIIE (Glutamate receptor IIE)	1	3.47e6	4.04e6	3.83e6
56	Nadsyn (NAD synthetase)	1	3.60e6	4.07e6	4.22e6
57	Mrp4 (Multidrug resistance protein 4)	1	3.82e6	4.18e6	4.30e6
58	CG15196	1	3.50e6	4.02e6	3.89e6
59	CG11170	1	3.61e6	4.10e6	4.11e6
60	tup (tailup)	1	3.53e6	3.90e6	4.10e6
61	side-VIII (sidestep VIII)	1	3.50e6	3.81e6	4.13e6
62	side-VIII (sidestep VIII)	2	2.94e6	3.52e6	3.62e6
63	side-VIII (sidestep VIII)	3	3.36e6	3.84e6	3.83e6
64	side-VIII (sidestep VIII)	4	3.60e6	4.05e6	4.14e6
65	cdi (center divider)	1	3.55e6	4.07e6	3.99e6
66	Cyp6a2 (Cytochrome P450 6a2)	1	3.21e6	3.53e6	3.61e6
67	Targ2 (Terminal ADP-ribose protein glycohydrolase 2)	1	3.42e6	3.92e6	3.91e6
68	Pph13 (PvuII-PstI homology 13)	1	3.37e6	3.76e6	3.76e6
69	Pph13 (PvuII-PstI homology 13)	2	3.32e6	3.81e6	3.74e6
70	CG30403	1	1.87e6	4.04e6	4.03e6
71	Su(P) (Suppressor of ref(2)P sterility)	1	3.53e6	4.03e6	3.98e6
72	CG12147	1	3.56e6	4.03e6	4.05e6
73	CG12096	1	3.50e6	3.99e6	3.98e6
74	7SLRNA:CR42652 + 7SLRNA:CR32864	1	3.57e6	4.06e6	4.03e6
75	CG9541	1	3.63e6	4.07e6	4.16e6
76	fred (friend of echinoid)	1	3.70e6	4.20e6	4.11e6
77	fred (friend of echinoid)	2	3.45e6	4.04e6	3.92e6
78	fred (friend of echinoid)	3	3.41e6	3.86e6	3.86e6
79	fred (friend of echinoid)	4	3.59e6	3.95e6	4.17e6
80	fred (friend of echinoid)	5	3.55e6	3.97e6	4.07e6
81	dare (defective in the avoidance of repellents)	1	3.50e6	4.05e6	3.87e6
82	CG34012	1	3.42e6	3.83e6	3.94e6
83	Efa6 (Exchange factor for Arf 6)	1	3.56e6	4.01e6	4.08e6
84	Efa6 (Exchange factor for Arf 6)	2	3.25e6	3.69e6	3.66e6
85	Efa6 (Exchange factor for Arf 6)	3	3.39e6	3.85e6	3.75e6
86	NT1 (Neurotrophin 1)	1	3.53e6	4.03e6	3.98e6
87	NT1 (Neurotrophin 1)	2	3.36e6	3.90e6	3.86e6

A portion of the results above, as a working copy:
no.	target gene	dsRNA no.	mean viability with MMS	viability with MMS, replicate 1	viability with MMS, replicate 2
49	CG42808 + CG42807	1	3.61e6	4.12e6	4.08e6
50	CG42808 + CG42807	2	3.58e6	4.17e6	4.03e6
51	CCT1 (Chaperonin containing TCP1 subunit 1)	1	3.19e6	3.70e6	3.66e6
52	trp (transient receptor potential)	1	3.56e6	4.03e6	4.03e6
53	CG17580	1	3.61e6	3.73e6	4.25e6
